Test results: patent publication US20250127868A1, “HYPERACTIVATING LIPID NANOPARTICLES” (Corner Therapeutics, Inc., priority 2022, published 2025)
At least one compound was matched to its structure with a doubt left.

Tests used:
human PBMCs = experiment: IL-1β secretion by human PBMCs (ELISA or Lumit); type: cell-based; settings: two days post-activation, R848 1 μg/mL, 22:0 LYSO PC 82.5 μM
Experimental: Isolation of PBMCs from Whole Blood. PBMCs were isolated from whole blood using density gradient centrifugation with Ficoll-Paque PLUS (Cytivia). Whole blood was diluted 1:1 with PBS, layered on top of Ficoll-Paque PLUS and centrifuged at 1000×g for 30 minutes at room temperature. PBMCs were collected, washed twice in PBS, and incubated with Ack lysis buffer (Lonza) to remove any remaining red blood cells.
Cell Culture and Stimulation. Immediately following isolation, PBMCs were plated in RPMI medium containing 10% FBS, 50 units/mL penicillin, […] streptomycin, 2 mM L-glutamine, 1 mM sodium pyruvate, and […] beta-mercaptoethanol (R10 media). […]
Endpoint Analyses. […] Half of the media volume in the wells was collected for cytokine quantification by Enzyme-Linked Immunosorbent Assay (ELISA) or Lumit™ Bioluminescent assay, while the remaining media and cells were used to quantify cell viability by assessing metabolic activity.
Quantification of Cytokine Secretion. IL-1β secretion from human PBMCs was assessed using one of the following kits: ELISA MAX Deluxe Set Human IL-1β kit (Biolegend), Invitrogen Human IL-1β kit, or the Lumit™ Human IL-1β Immunoassay (Promega). IFNγ secretion from human PBMCs was assessed using the ELISA MAX Deluxe Set Human IFNγ (Biolegend) and TNFα secretion from human PBMCs was assessed using the Human TNFα Uncoated ELISA kit (Invitrogen). […]

canine PBMCs = experiment: IL-1β secretion by canine PBMCs (ELISA); type: cell-based; settings: two days post-activation, R848 1 μg/mL, 22:0 LYSO PC 82.5 μM, LPS 1 μg/mL, Alum 30 μg/mL

**Q.** How did the IL-1β secretion (human PBMCs) turn out when `CCOCc1nc2c(N)nc3ccccc3c2n1CC(C)(C)O` [R848, resiquimod] was run?
**A.** secreted IL-1β in response to R848 alone

**Q.** What about the IL-1β secretion (canine PBMCs) of the same compound?
**A.** elevated levels of IL-1β secretion
